Literature values as cited in US8815815B2, “Methods for producing phytoextracts from vegetation waters and olive oil pomaces and compositions obtained thereby” (Phenofarm S.r.l., priority 2011, dated 2014).
At least one structure is not confirmed: it was looked up by name or label, or the drawing left a doubt.

System: iNOS and COX-2
Details: cell lines

OCCc1ccc(O)c(O)c1 [Hydroxytyrosol]
gene expression of iNOS and COX-2: reduce the gene expression of iNOS and COX-2
